{"source": "patent US20080269259A1", "about": "“Regulation of Autophagy and Cell Survival” (THE TRUSTEES OF THE UNIVERSITY OF PENNSYLVANIA, priority 2005, published 2008)", "system": "Bax^−/−Bak^−/− cells", "assay": "Viability of IL-3 dependent Bax−/−Bak−/− cells (propidium iodide exclusion)", "format": "cell-based, mice", "settings": "cells deprived of growth factor for 6 weeks; 5 mM 3-MA or 10 μM CQ", "procedure": "Immortalized IL-3 dependent cells were obtained from the bone marrow of two independent Bax^−/−Bak^−/− mice using previously established protocols. Subsequent experiments using these cells were performed in complete media consisting of: RPMI 1640 medium (Invitrogen) supplemented with 10% heat inactivated fetal bovine serum (Gemini), 10 units/mL penicillin/streptomycin and 2 mM L-glutamine (Invitrogen), 50 μm β-mercaptoethanol (Sigma) and 10 mM HEPES (Invitrogen). For cells grown in the presence of IL-3, the complete medium was supplemented with 3.5 ng/mL of murine recombinant IL-3 (BD Pharmingen). For IL-3 withdrawal experiments, cells were washed three times in medium without IL-3 and serum. After the final wash, cells were resuspended in complete medium without IL-3. Medium for cells cultured in the absence of IL-3 was replaced with fresh complete medium without IL-3 every 10 days. […] Cell size and number was assessed by using a Coulter Z2 particle analyzer. For readdition experiments, cells grown in the absence of IL-3 at the indicated time points were pelleted by centrifugation and resuspended in complete media containing 3.5 ng/mL IL-3. The FL5.12 cell line was maintained in complete media supplemented with 0.35 ng/mL IL-3. […]", "note": "Some entries share one result that the patent states for a list of compounds.", "data": [{"smiles": "Cn1cnc(N)c2ncnc1-2", "note": "[3-MA, 3-methyladenine]", "values": [{"measurement": "time at which cell viability began to decline", "result": "≤ 18", "unit": "h"}]}]}
